The test addresses Flag-NEMO UBD mutant (UBDm; Y308S/H413A/C417A), purified (human) (UniProt Q9Y6K9). Kind of test: co-IP; in vitro: 200 ng purified Flag-NEMO (WT or UBDm), 200 ng His6-MAVSΔTM, in the presence of 200 μg HeLa S100, 2 mM ATP, 5 mM MgCl2, 20 mM HEPES-KOH pH 7.0, 30°C for 1 hr; Flag (M2) agarose at 4°C overnight; immunoblot of MAVS; both purified. For orientation: A western blot detects proteins with antibodies after separation by electrophoresis.

Protein sequences, listed by entry. Tags and fused reporters are not part of them. Lines headed by an entry give the natural chain unless they say otherwise; changes in a name come on top.
UniProt Q9Y6K9: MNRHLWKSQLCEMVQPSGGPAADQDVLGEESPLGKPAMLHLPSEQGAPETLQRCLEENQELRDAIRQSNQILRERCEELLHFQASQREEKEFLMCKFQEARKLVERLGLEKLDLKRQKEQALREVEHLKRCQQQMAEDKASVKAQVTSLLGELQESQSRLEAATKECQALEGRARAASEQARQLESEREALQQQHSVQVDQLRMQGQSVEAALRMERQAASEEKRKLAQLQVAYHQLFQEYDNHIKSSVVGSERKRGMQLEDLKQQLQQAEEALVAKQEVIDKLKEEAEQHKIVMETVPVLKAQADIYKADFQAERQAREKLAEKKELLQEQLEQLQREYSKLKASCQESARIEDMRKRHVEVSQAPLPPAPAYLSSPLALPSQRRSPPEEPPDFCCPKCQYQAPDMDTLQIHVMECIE
UniProt Q7Z434: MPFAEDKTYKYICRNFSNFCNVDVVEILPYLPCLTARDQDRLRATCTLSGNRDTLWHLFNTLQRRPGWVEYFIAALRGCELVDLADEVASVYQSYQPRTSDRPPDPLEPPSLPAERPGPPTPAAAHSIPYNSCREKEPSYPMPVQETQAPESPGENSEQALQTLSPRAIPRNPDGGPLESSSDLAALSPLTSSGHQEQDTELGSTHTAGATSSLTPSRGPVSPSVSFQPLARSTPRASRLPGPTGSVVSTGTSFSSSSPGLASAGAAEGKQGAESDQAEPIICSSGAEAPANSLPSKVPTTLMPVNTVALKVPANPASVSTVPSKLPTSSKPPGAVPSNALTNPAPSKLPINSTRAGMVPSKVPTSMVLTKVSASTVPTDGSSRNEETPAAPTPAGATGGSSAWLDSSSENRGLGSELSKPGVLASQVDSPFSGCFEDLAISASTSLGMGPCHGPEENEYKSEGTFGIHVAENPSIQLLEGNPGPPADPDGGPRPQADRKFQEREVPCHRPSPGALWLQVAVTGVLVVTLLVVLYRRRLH

No constants are given. Whether binding was seen depends on the method and setting. Binding seen in cells or lysates may run through a third protein.

For the substance “His6-MAVSΔTM (MAVS without its transmembrane domain) (from UniProt Q7Z434) (domain or fragment)”, the binding result is listed as “no binding”.

For the origin of these results see article PMC3743401.
